Values of other authors in patent US10434083B2, “Transmammary delivery of cyclooxygenase-2 inhibitors for analgesia in neonates” (Iowa State University Research Foundation, Inc., priority 2018, dated 2019).
At least one structure is not confirmed: it was looked up by name or label, or the drawing left a doubt.

Experiments:
[1] = administered directly to piglets immediately before castration; cited from earlier work
[2] = cited from earlier work

Cc1cnc(NC(=O)C2=C(O)c3ccccc3S(=O)(=O)N2C)s1 [meloxicam]
effect on piglet average daily gain [1]: no effects of NSAID administration on piglet average daily gain | pain relief in piglets ([2]; 30 mg/kg bodyweight to sows for 7 days, via milk): minimal pain relief was observed | growth or performance of the piglets ([2]; via milk of medicated sows): no observed improvement in growth or performance
